Consider 6 molecules from PMC12992792.

Assay in all cases: two-hybrid; all-versus-all matrix screen in S. cerevisiae; every protein as bait (DBD) and prey (AD), tagged N- or C-terminally, eight configurations a pair; mating on YPDA, selection on -His/-Trp/-Leu/-Ura/-Ade, 30 °C, four to seven days; replication score cutoff 0.75
For assay [1], the target named is T1, D. melanogaster Deadlock (D. melanogaster) (UniProt Q9VIF5).
T1 sequence: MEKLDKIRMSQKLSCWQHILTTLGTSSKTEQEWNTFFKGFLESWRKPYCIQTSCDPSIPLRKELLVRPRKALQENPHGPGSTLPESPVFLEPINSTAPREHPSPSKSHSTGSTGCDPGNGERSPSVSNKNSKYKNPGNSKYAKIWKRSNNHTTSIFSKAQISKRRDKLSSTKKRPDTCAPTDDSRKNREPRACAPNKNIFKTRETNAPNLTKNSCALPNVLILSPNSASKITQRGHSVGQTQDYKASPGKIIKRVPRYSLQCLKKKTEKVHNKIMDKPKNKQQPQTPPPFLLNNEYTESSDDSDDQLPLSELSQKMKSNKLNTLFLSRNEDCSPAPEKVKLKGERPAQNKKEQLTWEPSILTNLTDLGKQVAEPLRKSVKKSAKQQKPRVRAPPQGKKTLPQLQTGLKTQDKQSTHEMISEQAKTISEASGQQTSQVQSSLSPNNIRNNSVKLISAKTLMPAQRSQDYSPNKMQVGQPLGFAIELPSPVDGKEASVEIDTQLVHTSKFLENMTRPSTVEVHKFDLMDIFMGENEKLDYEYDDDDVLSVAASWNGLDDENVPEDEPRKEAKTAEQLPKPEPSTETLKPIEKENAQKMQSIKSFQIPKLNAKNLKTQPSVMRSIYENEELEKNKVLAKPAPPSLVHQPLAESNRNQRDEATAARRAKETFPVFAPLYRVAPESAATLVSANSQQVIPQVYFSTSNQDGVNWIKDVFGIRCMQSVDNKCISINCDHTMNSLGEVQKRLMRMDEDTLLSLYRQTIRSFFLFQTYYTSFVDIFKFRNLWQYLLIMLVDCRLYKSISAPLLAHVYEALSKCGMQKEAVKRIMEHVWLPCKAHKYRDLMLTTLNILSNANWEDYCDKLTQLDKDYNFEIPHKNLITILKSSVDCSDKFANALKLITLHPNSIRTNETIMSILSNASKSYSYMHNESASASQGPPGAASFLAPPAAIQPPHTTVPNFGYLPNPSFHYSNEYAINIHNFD

For assay [2], the target named is T2, D. melanogaster Rhino (D. melanogaster) (UniProt Q7JXA8).
T2 sequence: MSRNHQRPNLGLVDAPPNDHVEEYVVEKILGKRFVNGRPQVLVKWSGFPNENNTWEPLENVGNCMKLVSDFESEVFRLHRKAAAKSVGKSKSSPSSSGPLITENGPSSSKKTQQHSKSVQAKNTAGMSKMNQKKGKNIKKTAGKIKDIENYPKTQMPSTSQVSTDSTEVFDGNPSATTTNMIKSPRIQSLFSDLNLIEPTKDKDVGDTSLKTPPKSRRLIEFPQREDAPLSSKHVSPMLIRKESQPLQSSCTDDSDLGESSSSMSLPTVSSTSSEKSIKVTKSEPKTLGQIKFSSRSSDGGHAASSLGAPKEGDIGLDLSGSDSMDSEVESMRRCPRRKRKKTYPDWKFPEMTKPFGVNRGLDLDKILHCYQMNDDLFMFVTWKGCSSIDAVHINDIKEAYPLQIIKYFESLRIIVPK

The target in assay [3] is T3, D. melanogaster TFIIA-S (D. melanogaster) (UniProt P52656).
T3 sequence: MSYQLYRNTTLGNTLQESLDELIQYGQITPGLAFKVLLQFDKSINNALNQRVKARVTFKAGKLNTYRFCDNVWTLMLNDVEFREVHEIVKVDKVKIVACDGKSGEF

The target in assay [4] is T4, D. melanogaster Moonshiner (D. melanogaster) (UniProt Q9VYQ0).
T4 sequence: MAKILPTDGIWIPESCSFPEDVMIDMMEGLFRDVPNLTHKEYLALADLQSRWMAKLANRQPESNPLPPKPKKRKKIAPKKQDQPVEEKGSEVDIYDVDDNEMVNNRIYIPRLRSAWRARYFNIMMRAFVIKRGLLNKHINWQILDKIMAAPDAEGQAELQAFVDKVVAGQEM

Assay [5] addresses T5, D. simulans Rhino (D. simulans) (UniProt Q49BI5).
T5 sequence: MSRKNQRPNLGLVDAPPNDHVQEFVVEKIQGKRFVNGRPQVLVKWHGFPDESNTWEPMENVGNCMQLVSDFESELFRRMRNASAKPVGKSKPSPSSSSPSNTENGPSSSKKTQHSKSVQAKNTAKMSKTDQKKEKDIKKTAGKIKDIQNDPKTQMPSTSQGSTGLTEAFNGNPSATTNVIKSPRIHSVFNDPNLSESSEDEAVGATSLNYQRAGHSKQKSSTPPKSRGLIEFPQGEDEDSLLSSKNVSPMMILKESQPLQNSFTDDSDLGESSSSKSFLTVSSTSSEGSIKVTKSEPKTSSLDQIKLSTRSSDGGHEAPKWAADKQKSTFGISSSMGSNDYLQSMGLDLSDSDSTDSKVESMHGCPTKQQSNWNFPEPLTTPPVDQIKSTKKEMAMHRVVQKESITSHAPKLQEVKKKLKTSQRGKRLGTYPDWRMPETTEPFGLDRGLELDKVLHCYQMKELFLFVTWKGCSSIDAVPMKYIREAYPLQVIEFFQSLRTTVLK

Assay [6] addresses D. simulans C-terminal Binding Protein (D. simulans).
Assay [7] concerns the target D. erecta C-terminal Binding Protein (D. erecta).
In assay [8] the target is D. persimilis C-terminal Binding Protein (D. persimilis).
Assay [9] addresses D. virilis C-terminal Binding Protein (D. virilis).

No constants are given. Whether binding was seen depends on the method and setting. For some of these results: A result given as binding can be weak or reduced; the word gives no strength.

For the molecule D. melanogaster Bootlegger, the binding entry in [1] is given as “binds”.

In the case of D. melanogaster Kipferl, the binding result in assay [2] was “binds”.

Consider “D. melanogaster TATA box binding protein-related factor 2”, for which the binding entry in assay [3] and in assay [4] was “no binding” in each case.

For the molecule D. simulans Bootlegger, the binding result in assay [1] was “binds”.

In the case of D. simulans Kipferl, the binding entry in [5] is given as “binds”.

B1: D. melanogaster Deadlock (protein, UniProt Q9VIF5 1-981)
chain: T1 sequence
With B1, the binding entry in assay [6], in assay [7], in [8] and in assay [9] was “no binding” throughout.
